# Results: PubChem BioAssay (NCATS)
# This list was built around the results that the source calls inconclusive (neither active nor inactive); the mix of calls is not that of the screen. Potencies beside an inconclusive call are fits to weak or partial responses and may not hold up. The source made the active and inactive calls. Calls come from the whole dose curve; as a rule, active = well fitted curve in the direction sought with a large enough effect; inconclusive = small, poorly fitted or top-dose-only effect, or another doubt; inactive = no such curve, though single readings can be large; an effect the other way counts as inactive or inconclusive.
# Tested on: NanoLuc luciferase (engineered Oplophorus gracilirostris luciferase)
# Assay: Biochemical coelenterazine-based NLuc counterscreen for small molecule modulators of PMP22 gene expression - Km assay (AID 1508639)
# Details: secreted NLuc enzyme, coelenterazine luminescence, Km conditions; series mostly up to 57.5 µM
# How it was run: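 Luminescence was recorded by CCD camera 10 min after adding NLuc enzyme, taken from filtered media of S16 cells secreting NLuc. Before enzyme addition, compound sat for 5 min with 15 uM coelenterazine substrate (PBS pH7.4, sodium ascorbate, TritonX).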
# % is set by controls: 0 for no effect and ±100 for the full control effect; potency is the fitted concentration of half-maximal effect.
row,Structure (SMILES),Potency
1,COc1cc(NC(=O)N2CCC(CN3CCOCC3)CC2)cc(OC)c1OC,inactive
2,O=C(CCS(=O)(=O)c1nc(-c2ccc3c(c2)OCO3)cc(C(F)(F)F)n1)Nc1ccc(F)c(Cl)c1,"inconclusive: 10.9 µM [inhibitor, full curve, poor fit]"
3,CCC1=Nc2cc(C(=O)NCCCOC)ccc2Sc2ccc(Br)cc21,inactive
4,CCOc1ccc(NC(=O)c2c(NC(=O)Cc3ccccc3)sc3c2CCC(C)C3)cc1 (stereo not given),active: 17.2 µM
5,Cn1nnnc1SCCCNCc1ccccc1OCc1ccccc1Cl,"inconclusive: 17.2 µM [inhibitor, partial curve, poor fit]"
6,COc1cc2c(=O)c(C(=O)c3ccc(C)c(C)c3)cn(Cc3ccccc3F)c2cc1OC,active: 0.485 µM
7,CCOc1cc(CNc2ccc(O)cc2)ccc1OCc1ccc(Cl)cc1,active: 19.3 µM
8,CSc1nc2sc3c(c2c(=O)n1-c1ccc(C)cc1)CCCC3,"inconclusive: 2.43 µM [inhibitor, full curve]"
9,CCN1C(=O)c2ccccc2S(=O)c2ccc(C(=O)N3CCN(c4cccc(Cl)c4)CC3)cc21 (stereo not given),active: 3.43 µM
10,COc1cc(NS(=O)(=O)c2ccc3[nH]c4c(c3c2)CCCC4)cc(OC)c1OC,"inconclusive: 38.5 µM [inhibitor, single point]"

# Tested on: not listed separately
# Assay: Cell viability qHTS assay in S16 Pmp22-F2sN cells - Confirmatory screen (AID 1508641)
# Details: S16 Schwann cells viability, CellTiter-Glo ATP luminescence, 24 h; activity change, negative = viability loss: at 57.5 µM (top of the series)
# How it was run: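 CellTiter-Glo luminescence, read after 15 min at room temperature, measured viability. Before that, S16 Pmp22-F2sN cells (500-1,000 per well, DMEM plus 10% FBS) were exposed to compounds for 24 h at 37C.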
Structure (SMILES),Potency,"activity change, negative = viability loss"
COc1ccccc1Nc1ncnc2scc(-c3ccc(F)cc3)c12,inactive,–
COc1cccc(-n2c(SCC(=O)c3ccc(Cl)cc3)nc3c([nH]c4ccccc43)c2=O)c1,"inconclusive: 43.2 µM [cytotoxic, single point]",–
O=C(NC1CCN(Cc2ccccc2)CC1)c1ccc(Cn2c(=O)c3ccccc3n(Cc3ccc(Cl)cc3)c2=O)cc1,active: 12.2 µM,–
O=C(CSc1nc2c([nH]c3ccccc32)c(=O)n1-c1ccc(Cl)cc1)NC1CCCCC1,"inconclusive: 30.6 µM [cytotoxic, single point]",–
Cc1ccc(CNC(=O)c2ccc(Cn3c(=O)c4ccccc4n(CC(=O)Nc4c(C)cc(C)cc4C)c3=O)cc2)cc1,"inconclusive: 43.2 µM [cytotoxic, single point]",–
O=C(NCCCN1CCN(c2cccc(Cl)c2)CC1)c1nnc(Cc2ccc(F)cc2Cl)o1,inactive,–
CN(C)CCN(Cc1ccco1)C(=O)c1cc2c(s1)-c1ccccc1OC2,"inconclusive: 38.5 µM [cytotoxic, single point]",–
COc1ccc(Cl)cc1NC(=O)CCCS(=O)(=O)c1nc(-c2ccc(OC)c(OC)c2)cc(C(F)(F)F)n1,"inconclusive: 43.2 µM [cytotoxic, single point]",–
Cc1cc(C)c(NC(=O)Cn2c(=O)n(Cc3ccco3)c(=O)c3ccc(C(=O)NC4CCCC4)cc32)c(C)c1,active: 21.7 µM,–
Cc1ccccc1NC(=O)Cn1c(=O)n(Cc2ccc3c(c2)OCO3)c(=O)c2ccc(C(=O)NC3CCCCC3)cc21,active: 24.3 µM,–
CC(C)c1ccc(OCC(=O)Nc2cc(-c3nc4ncccc4o3)ccc2Cl)cc1,inactive,–
CCc1ccc(NC(=O)Cn2c(=O)n(-c3ccc(OC)cc3)c(=O)c3ccc(C(=O)NCc4ccc(C)cc4)cc32)cc1,"inconclusive: 30.6 µM [cytotoxic, single point]",–
COc1ccc(NC(=O)N2CCc3c(sc4c3CCCC4)C2c2ccc(F)cc2)cc1 (stereo not given),"inconclusive: 2.73 µM [rising, partial curve, poor fit]",–
Cc1ccc(CNC(=O)c2ccc(Nc3nc4ccccc4n4nnnc34)cc2)cc1,"inconclusive: 43.2 µM [cytotoxic, single point]",–
CCOC(=O)c1ccc(N2C(=O)c3[nH]nc(-c4ccc(C)cc4)c3C2c2ccc(O)c(OCC)c2)cc1 (stereo not given),"inconclusive: 0.0097 µM [rising, full curve, poor fit]",–
CCCN(CCC)CCCNC(=O)c1cc2c(=O)oc3ccc(C)cc3c2s1,"inconclusive: 0.485 µM [rising, full curve, poor fit]",–
Cc1ccc(CNC(=O)c2ccc(Cn3c(=O)c4ccccc4n(CC(=O)Nc4ccc(C)cc4C)c3=O)cc2)cc1,"inconclusive: 27.3 µM [cytotoxic, partial curve]",–
COc1ccc(Nc2nc3c(S(=O)(=O)c4ccc(C)cc4)nnn3c3ccsc23)cc1Cl,"inconclusive: 43.2 µM [cytotoxic, single point]",–
CCN(CC)CCCNC(=O)CSc1c2c(nc3cc(Cl)ccc13)CCCC2,"inconclusive: 43.2 µM [cytotoxic, single point]",–
Cc1cccc(-n2c(=O)c3c(c4cc(C)ccc4n3C)n(CC(=O)NCCC3=CCCCC3)c2=O)c1,"inconclusive: 30.6 µM [cytotoxic, single point]",–
COc1ccc(OCc2ccc(-c3nc(C#N)c(N4CCC(C)CC4)o3)o2)cc1,inactive,–
CCc1ccccc1Nc1cc(C(=O)NCCCN(C)C2CCCCC2)c2ccccc2n1,"inconclusive: 34.3 µM [cytotoxic, single point]",–
O=C(CCS(=O)(=O)c1ccc(Br)s1)Nc1cc(C(F)(F)F)cc(C(F)(F)F)c1,"inconclusive: 34.3 µM [cytotoxic, single point]",–
CCOc1ccc(OCC)c(NC(=O)c2nnn(CC(=O)Nc3cc(Cl)ccc3OC)c2N)c1,–,inconclusive: -32.6% [cytotoxic]
COc1ccccc1Nc1c2c(nc3ccc(NC(=O)c4cccc(F)c4)cc13)CCCC2,active: 13.7 µM,–
CCC1=Nc2cc(C(=O)NCCN(CC)CC)ccc2Sc2ccccc21,inactive,–
CCOc1ccc(CN2CCc3nc(N4CCN(c5ccccc5OC)CC4)ncc3C2)cc1OC,inactive,–
COC(=O)c1c(-c2ccc(Cl)cc2)noc1N1CCN(c2cc(C)ccc2C)CC1,"inconclusive: 43.2 µM [cytotoxic, single point]",–
COc1cc(C2C(C(=O)OC(C)C)=C(C)N=C3SCCC(=O)N32)ccc1OCc1ccccc1 (stereo not given),–,inconclusive: -31.4% [cytotoxic]
CCN(Cc1ccccc1)C(=O)c1nn(-c2ccc(OC)cc2)c(=O)c2c1c1ccccc1n2C,inactive,–

# Exported tab-delimited: part of the list above.
Structure (SMILES)	Potency	activity change, negative = viability loss
COc1cccc(-n2c(SCC(=O)c3ccc(Cl)cc3)nc3c([nH]c4ccccc43)c2=O)c1	inconclusive: 43.2 µM [cytotoxic, single point]	–
O=C(CSc1nc2c([nH]c3ccccc32)c(=O)n1-c1ccc(Cl)cc1)NC1CCCCC1	inconclusive: 30.6 µM [cytotoxic, single point]	–
Cc1cc(C)c(NC(=O)Cn2c(=O)n(Cc3ccco3)c(=O)c3ccc(C(=O)NC4CCCC4)cc32)c(C)c1	active: 21.7 µM	–
CCc1ccc(NC(=O)Cn2c(=O)n(-c3ccc(OC)cc3)c(=O)c3ccc(C(=O)NCc4ccc(C)cc4)cc32)cc1	inconclusive: 30.6 µM [cytotoxic, single point]	–
COc1ccc(NC(=O)N2CCc3c(sc4c3CCCC4)C2c2ccc(F)cc2)cc1 (stereo not given)	inconclusive: 2.73 µM [rising, partial curve, poor fit]	–
CCOC(=O)c1ccc(N2C(=O)c3[nH]nc(-c4ccc(C)cc4)c3C2c2ccc(O)c(OCC)c2)cc1 (stereo not given)	inconclusive: 0.0097 µM [rising, full curve, poor fit]	–
Cc1ccc(CNC(=O)c2ccc(Cn3c(=O)c4ccccc4n(CC(=O)Nc4ccc(C)cc4C)c3=O)cc2)cc1	inconclusive: 27.3 µM [cytotoxic, partial curve]	–
CCN(CC)CCCNC(=O)CSc1c2c(nc3cc(Cl)ccc13)CCCC2	inconclusive: 43.2 µM [cytotoxic, single point]	–
Cc1cccc(-n2c(=O)c3c(c4cc(C)ccc4n3C)n(CC(=O)NCCC3=CCCCC3)c2=O)c1	inconclusive: 30.6 µM [cytotoxic, single point]	–
CCc1ccccc1Nc1cc(C(=O)NCCCN(C)C2CCCCC2)c2ccccc2n1	inconclusive: 34.3 µM [cytotoxic, single point]	–
COc1cc(C2C(C(=O)OC(C)C)=C(C)N=C3SCCC(=O)N32)ccc1OCc1ccccc1 (stereo not given)	–	inconclusive: -31.4% [cytotoxic]
